The text below walks through data of paper PMC5175582.

These are yes or no findings as the source states them, for the method shown.

The target in the assay is T1, Biotin-labelled MMRN1 (human) (UniProt Q13201).
T1 sequence (chain, biotin (sites not stated)): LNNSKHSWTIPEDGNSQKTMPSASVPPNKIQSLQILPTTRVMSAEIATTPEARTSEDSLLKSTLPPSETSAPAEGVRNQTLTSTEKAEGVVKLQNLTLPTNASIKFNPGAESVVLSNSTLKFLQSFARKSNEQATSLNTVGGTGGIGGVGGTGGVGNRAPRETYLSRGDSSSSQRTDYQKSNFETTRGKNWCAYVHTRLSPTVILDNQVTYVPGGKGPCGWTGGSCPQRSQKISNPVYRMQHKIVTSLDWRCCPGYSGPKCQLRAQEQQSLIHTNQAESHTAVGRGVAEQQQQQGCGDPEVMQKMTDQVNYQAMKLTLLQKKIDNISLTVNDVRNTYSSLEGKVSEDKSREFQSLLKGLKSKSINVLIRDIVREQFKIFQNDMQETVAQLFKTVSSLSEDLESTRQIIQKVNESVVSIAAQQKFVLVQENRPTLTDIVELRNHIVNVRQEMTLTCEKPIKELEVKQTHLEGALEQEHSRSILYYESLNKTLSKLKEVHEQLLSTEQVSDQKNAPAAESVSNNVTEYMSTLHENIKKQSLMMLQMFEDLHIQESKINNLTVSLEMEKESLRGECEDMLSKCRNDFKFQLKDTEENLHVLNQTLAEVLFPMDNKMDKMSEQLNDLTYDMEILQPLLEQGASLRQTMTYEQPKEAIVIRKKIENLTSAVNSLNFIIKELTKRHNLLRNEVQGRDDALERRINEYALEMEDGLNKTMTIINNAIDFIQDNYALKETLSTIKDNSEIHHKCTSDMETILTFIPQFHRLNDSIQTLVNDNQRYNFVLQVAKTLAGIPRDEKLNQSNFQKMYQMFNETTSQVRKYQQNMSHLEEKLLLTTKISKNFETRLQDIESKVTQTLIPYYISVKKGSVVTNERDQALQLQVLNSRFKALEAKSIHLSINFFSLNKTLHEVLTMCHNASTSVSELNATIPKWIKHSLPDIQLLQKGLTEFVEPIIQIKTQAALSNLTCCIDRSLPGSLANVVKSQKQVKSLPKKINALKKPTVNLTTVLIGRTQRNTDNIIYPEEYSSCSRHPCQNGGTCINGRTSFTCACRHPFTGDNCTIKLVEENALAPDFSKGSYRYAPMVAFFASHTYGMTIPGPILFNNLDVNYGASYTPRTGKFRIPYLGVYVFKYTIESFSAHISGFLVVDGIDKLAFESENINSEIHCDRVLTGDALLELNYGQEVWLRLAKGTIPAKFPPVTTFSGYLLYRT
Put plainly: SPR; BIAcoreX; biotin-labelled MMRN1 immobilised on streptavidin-coated sensor chips (500–1000 RU); VWF A domains perfused in HEPES-Tyrode running buffer with 0.005 % P-20; two-state conformational model for A1A2A3 and A1, 1:1 Langmuir model for A3; apparent affinity; both purified. For orientation: SPR reads the build-up and loss of mass on a sensor chip optically.

Consider “Monomeric VWF A2 domain (domain or fragment)”, for which the binding result is “no binding (tested: 250 nM)”.
